The record followed here is patent US20260098007A1, “Compounds and Their Use in Filtering Ultraviolet and/or High-Energy Visible Light” (Soliome Inc., priority 2022, published 2026).

The data set concerns hair keratin (bleached hair tresses). As to the kind of experiment: Hair protection against UV, high-pressure differential scanning calorimetry (DSC). Conditions: 15% (w/w) solution 0.2 ml/g of hair, total 6 h UV exposure in Q-sun UV chamber, 6 replicates. How it is done: Hair protection against UV was evaluated using a standard set of high-pressure differential scanning calorimetry (DSC). The experiments were conducted on samples of hair with and without UV exposure and with and without application of compounds according to the invention. This technique was used to detect any deep structural changes in the hair keratin that occurs as a result of damage, such as that caused by UV which may affect the keratin structure, such as changes to the cysteine bond arrangement or the content of strongly bound water (Milczarek, P., M. Zielinski, and M. L. Garcia. “The mechanism and stability of thermal transitions in hair keratin.” Colloid and Polymer Science 270.11 (1992): 1106-1115; Wortmann, Franz-J., Christian Springob, and Gerhard Sendelbach. “Investigations of cosmetically treated human hair by differential scanning calorimetry in water.” Journal of cosmetic science 53.4 (2002): 219-228).
• 1 Bleached Hair tresses (3 g, 8 inches long, 1 inch wide naturally white hair tresses, 9% bleached) were soaked for 48 h while stirring in 4 liters of de-ionized water. Water was changed twice a day. Hair tresses were pretested using DSC to ensure that damage level across the tresses is similar. […]
For orientation: Differential scanning calorimetry records heat flow against a reference as temperature is scanned.

Structures are written as SMILES.

In the case of `COC(=O)C(CC(=O)c1ccccc1N)NC(=O)C[N+](C)(C)C` (stereo not shown) [Compound 43, 2-((4-(2-aminophenyl)-1-methoxy-1,4-dioxobutan-2-yl)amino)-N,N,N-trimethyl-2-oxoethan-1-aminium], the “Mean Denaturation Temperature (Td)” value turned out to be 145.8 °C.
